# Article PMC5652735
# Amino acid sequences for entries named in this document (tags omitted).
# UniProt Q15691: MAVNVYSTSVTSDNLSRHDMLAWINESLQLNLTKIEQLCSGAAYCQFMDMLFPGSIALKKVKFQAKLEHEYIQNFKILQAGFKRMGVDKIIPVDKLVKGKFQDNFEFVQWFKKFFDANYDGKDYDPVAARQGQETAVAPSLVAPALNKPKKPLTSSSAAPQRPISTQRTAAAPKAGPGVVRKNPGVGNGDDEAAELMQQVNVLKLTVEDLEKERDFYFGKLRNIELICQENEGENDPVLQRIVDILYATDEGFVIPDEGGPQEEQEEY
# Results are given in words; binding and its absence hold for the method and conditions named. In cells and extracts the contact can be indirect. Some entries that bind do so weakly or less than the wild type.
# Target: GST-EB1 (UniProt Q15691)
# Test: pull-down; GST-EB1 bound to glutathione-Sepharose 4B incubated with cleared whole cell lysate (Hs578t or MDA-MB-436) for 1.5 h at 4 °C; 50 mM Tris-HCl pH 7.5, 100 mM NaCl, 2 mM MgCl2, 10% glycerol, 1% Nonidet P-40, 1 mM PMSF; three washes; western blot; GST-loaded beads as control; only the target purified
row,Binder,binding
1,"SEPT2 (protein, UniProt Q15019 1-361) MSKQQPTQFINPETPGYVGFANLPNQVHRKSVKKGFEFTLMVVGESGLGKSTLINSLFLTDLYPERVIPGAAEKIERTVQIEASTVEIEERGVKLRLTVVDTPGYGDAINCRDCFKTIISYIDEQFERYLHDESGLNRRHIIDNRVHCCFYFISPFGHGLKPLDVAFMKAIHNKVNIVPVIAKADTLTLKERERLKKRILDEIEEHNIKIYHLPDAESDEDEDFKEQTRLLKASIPFSVVGSNQLIEAKGKKVRGRLYPWGVVEVENPEHNDFLKLRTMLITHMQDLQEVTQDLHYENFRSERLKRGGRKVENEDMNKDQILLEKEAELRRMQEMIARMQAQMQMQMQGGDGDGGALGHHV",binds
2,"SEPT7 (protein, UniProt Q16181 1-437) MSVSARSAAAEERSVNSSTMVAQQKNLEGYVGFANLPNQVYRKSVKRGFEFTLMVVGESGLGKSTLINSLFLTDLYSPEYPGPSHRIKKTVQVEQSKVLIKEGGVQLLLTIVDTPGFGDAVDNSNCWQPVIDYIDSKFEDYLNAESRVNRRQMPDNRVQCCLYFIAPSGHGLKPLDIEFMKRLHEKVNIIPLIAKADTLTPEECQQFKKQIMKEIQEHKIKIYEFPETDDEEENKLVKKIKDRLPLAVVGSNTIIEVNGKRVRGRQYPWGVAEVENGEHCDFTILRNMLIRTHMQDLKDVTNNVHYENYRSRKLAAVTYNGVDNNKNKGQLTKSPLAQMEEERREHVAKMKKMEMEMEQVFEMKVKEKVQKLKDSEAELQRRHEQMKKNLEAQHKELEEKRRQFEDEKANWEAQQRILEQQNSSRTLEKNKKKGKIF",binds
